Reference: article PMC3169474
Construct, isoform or probe ends are uncertain for at least one entry. At least one result comes from cells or an extract, where the contact may be indirect. For part of these data: No signal at the amounts used counts as a negative. For part of these data: Protein sequences can lack the tags named with them. For part of these data: Weaker means in comparison with the reference protein, sequence or condition of that experiment.

The chains behind the UniProt entries cited, without tags or fusion partners.
UniProt Q6DFM0, entry or part of it: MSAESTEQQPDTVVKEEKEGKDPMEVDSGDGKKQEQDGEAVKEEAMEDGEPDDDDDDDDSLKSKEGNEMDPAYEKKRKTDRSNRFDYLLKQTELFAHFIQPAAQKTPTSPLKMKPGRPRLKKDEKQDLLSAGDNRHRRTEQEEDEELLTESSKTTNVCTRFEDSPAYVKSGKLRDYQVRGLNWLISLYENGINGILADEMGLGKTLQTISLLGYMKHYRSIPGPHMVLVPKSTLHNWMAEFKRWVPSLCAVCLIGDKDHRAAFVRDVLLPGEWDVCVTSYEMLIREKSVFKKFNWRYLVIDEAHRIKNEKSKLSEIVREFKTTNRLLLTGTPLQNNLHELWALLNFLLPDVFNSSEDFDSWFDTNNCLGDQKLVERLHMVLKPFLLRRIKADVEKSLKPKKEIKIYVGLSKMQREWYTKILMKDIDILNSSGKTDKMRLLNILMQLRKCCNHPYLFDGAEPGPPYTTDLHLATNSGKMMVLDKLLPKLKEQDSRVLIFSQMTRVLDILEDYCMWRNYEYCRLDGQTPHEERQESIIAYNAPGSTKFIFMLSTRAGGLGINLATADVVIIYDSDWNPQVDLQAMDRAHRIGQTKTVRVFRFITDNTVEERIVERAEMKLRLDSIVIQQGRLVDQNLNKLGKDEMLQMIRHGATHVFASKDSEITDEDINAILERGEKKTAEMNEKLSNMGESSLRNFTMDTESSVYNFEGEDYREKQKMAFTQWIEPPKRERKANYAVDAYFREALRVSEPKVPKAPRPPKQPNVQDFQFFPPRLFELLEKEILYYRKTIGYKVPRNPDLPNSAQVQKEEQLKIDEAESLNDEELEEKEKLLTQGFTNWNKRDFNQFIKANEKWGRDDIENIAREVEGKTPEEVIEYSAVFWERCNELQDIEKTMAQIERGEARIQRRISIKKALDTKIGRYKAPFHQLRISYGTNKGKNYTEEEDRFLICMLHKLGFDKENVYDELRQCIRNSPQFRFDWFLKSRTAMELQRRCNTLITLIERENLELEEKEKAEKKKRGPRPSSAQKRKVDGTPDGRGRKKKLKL

Key:
Test in all cases: pull-down
MBD3 (endogenous) = conditions: biotin-dUTP/dATP fill-in, 20 mM Tris pH 8.0, 1 mM EDTA, 5 mM DTT, 5 mM MgCl2, 100 mM KCl, 0.125% NP40, protease inhibitors, overnight at 4 C, washes 100-200 mM KCl (up to 400 mM tested), protein in an extract, label: biotin-16-dUTP, biotin-14-dATP, streptavidin beads
MeCP2 (endogenous) = MeCP2 (endogenous) (UniProt Q9YGC6); conditions: biotin-dUTP/dATP fill-in, 20 mM Tris pH 8.0, 1 mM EDTA, 5 mM DTT, 5 mM MgCl2, 100 mM KCl, overnight at 4 C, washes 100-200 mM KCl (up to 400 mM tested), protein in an extract, label: biotin-16-dUTP, biotin-14-dATP, streptavidin beads
[1] = tested on: MBD3 short form (endogenous); conditions: biotin-dUTP/dATP fill-in, 20 mM Tris pH 8.0, 1 mM EDTA, 5 mM DTT, 5 mM MgCl2, 100 mM KCl, 0.125% NP40, protease inhibitors, overnight at 4 C, washes 100-200 mM KCl (up to 400 mM tested), protein in an extract, label: biotin-16-dUTP, biotin-14-dATP, streptavidin beads
Mi-2 (endogenous) = conditions: possibly via NuRD complex, biotin-dUTP/dATP fill-in, 20 mM Tris pH 8.0, 1 mM EDTA, 5 mM DTT, 5 mM MgCl2, 100 mM KCl, 0.125% NP40, protease inhibitors, overnight at 4 C, washes 100-200 mM KCl (up to 400 mM tested), protein in an extract, label: biotin-16-dUTP, biotin-14-dATP, streptavidin beads
ISWI (endogenous) = ISWI (endogenous) (UniProt Q6DFM0); conditions: uniform binding irrespective of methylation, biotin-dUTP/dATP fill-in, 20 mM Tris pH 8.0, 1 mM EDTA, 5 mM DTT, 5 mM MgCl2, 100 mM KCl, 0.125% NP40, protease inhibitors, overnight at 4 C, washes 100-200 mM KCl (up to 400 mM tested), protein in an extract, label: biotin-16-dUTP, biotin-14-dATP, streptavidin beads
TFIIB (endogenous) = target: T1, TFIIB (endogenous) (UniProt A0A8J0Q1H8); conditions: biotin-dUTP/dATP fill-in, 20 mM Tris pH 8.0, 1 mM EDTA, 5 mM DTT, 5 mM MgCl2, 100 mM KCl, 0.125% NP40, protease inhibitors, overnight at 4 C, washes 100-200 mM KCl (up to 400 mM tested), protein in an extract, label: biotin-16-dUTP, biotin-14-dATP, streptavidin beads
T1 sequence (looked up, limits assumed): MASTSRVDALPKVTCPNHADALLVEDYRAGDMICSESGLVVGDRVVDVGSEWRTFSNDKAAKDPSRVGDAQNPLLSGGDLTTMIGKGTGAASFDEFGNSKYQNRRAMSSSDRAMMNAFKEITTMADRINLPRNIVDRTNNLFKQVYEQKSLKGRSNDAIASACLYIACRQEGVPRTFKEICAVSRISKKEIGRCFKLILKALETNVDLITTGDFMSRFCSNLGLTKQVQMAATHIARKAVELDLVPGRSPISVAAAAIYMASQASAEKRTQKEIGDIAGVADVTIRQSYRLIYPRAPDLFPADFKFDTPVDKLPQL

[2] = 5-methylcytosine at CpG (SssI), both strands

| Sequence | binding result (MBD3 (endogenous); mostly eluted at 200 mM KCl wash, 5-methylcytosine at CpG (SssI), both strands) | binding result (MeCP2 (endogenous); tolerates 100 and 200 mM KCl wash, 5-methylcytosine at CpG (SssI), both strands, 0.125% NP40, protease inhibitors) | binding result [1, 2] | binding result (Mi-2 (endogenous); [2]) | binding result (ISWI (endogenous); [2]) | binding result (TFIIB (endogenous); [2]) | binding result (MBD3 (endogenous); legend: binds both, text: strong preference for methylated) | binding result (MeCP2 (endogenous); strong preference for methylated DNA, 0.125% NP40, protease …) | binding result ([1]; preference for methylated DNA) | binding result (Mi-2 (endogenous)) | binding result (ISWI (endogenous)) | binding result (TFIIB (endogenous)) |
| --- | --- | --- | --- | --- | --- | --- | --- | --- | --- | --- | --- | --- |
| GATCCCGGAGTTAA / GATCTTAACTCCGG [methylated concatamerized GATC-CCGG-AGTTAA probe (SssI+)] | binds | binds | binds | binds | binds | no binding |  |  |  |  |  |  |
| GATCCCGGAGTTAA / GATCTTAACTCCGG [unmethylated concatamerized GATC-CCGG-AGTTAA probe (SssI-)] |  |  |  |  |  |  | binds | binds more weakly | binds more weakly | binds | binds | no binding |
